Among the data in article PMC5570487 are binding values, retold here.

One test addresses T1, CHMP4B-Flag (UniProt Q9H444).
T1 sequence: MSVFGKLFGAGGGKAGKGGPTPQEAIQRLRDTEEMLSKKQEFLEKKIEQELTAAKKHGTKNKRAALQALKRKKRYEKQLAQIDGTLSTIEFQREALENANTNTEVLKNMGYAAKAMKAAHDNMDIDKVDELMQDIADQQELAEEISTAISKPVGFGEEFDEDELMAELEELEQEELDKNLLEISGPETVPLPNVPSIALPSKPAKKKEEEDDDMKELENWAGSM
Put plainly: co-IP; HeLa cells coexpressing V5-tagged cBIN1 (full length or truncated) and CHMP4B-Flag, lysed 48 h after transfection in IP buffer (50 mM Tris-HCl pH 8.0, 150 mM NaCl, 5 mM EDTA, 10 mM KCl, 0.5% Triton-100); immunoprecipitated with anti-Flag.

In test [1] the target is full-length cBIN1-V5 (FL: 1-477 aa). Put plainly: co-IP; HeLa cells coexpressing cBIN1-V5 and CHMP4B-Flag, lysed 48 h after transfection in IP buffer (50 mM Tris-HCl pH 8.0, 150 mM NaCl, 5 mM EDTA, 10 mM KCl, 0.5% Triton-100); immunoprecipitated with anti-V5.

These are yes or no findings as the source states them, for the method shown. Binding seen in cells or lysates may run through a third protein. Binding calls can cover weak binding; strength is not graded here. Sequences can lack the tags named with a protein.

“C-terminal (CT) domain of cBIN1, V5-tagged (CT: 256-477 aa) (domain or fragment)”: in the test with CHMP4B-Flag, the binding result was “no binding”.

As to “N-BAR domain of cBIN1, V5-tagged (BAR: 1-308 aa) (domain or fragment)”, the binding entry with CHMP4B-Flag is “binds”.

For full-length cBIN1-V5 (FL: 1-477 aa), the binding result with CHMP4B-Flag was “binds”.

B1: CHMP4B-Flag (protein, UniProt Q9H444 1-224)
chain: MSVFGKLFGAGGGKAGKGGPTPQEAIQRLRDTEEMLSKKQEFLEKKIEQELTAAKKHGTKNKRAALQALKRKKRYEKQLAQIDGTLSTIEFQREALENANTNTEVLKNMGYAAKAMKAAHDNMDIDKVDELMQDIADQQELAEEISTAISKPVGFGEEFDEDELMAELEELEQEELDKNLLEISGPETVPLPNVPSIALPSKPAKKKEEEDDDMKELENWAGSM
B1: the binding entry in test [1] is reported as “binds”.
